Laboratory results taken from patent US20140056866A1, “USE OF BIOLOGICAL OR CHEMICAL CONTROL AGENTS FOR CONTROLLING INSECTS AND NEMATODES IN RESISTANT CROPS” (priority 2010, published 2014).

Tested on: Z. Mays
Assay: Corn plant emergence after clothianidin seed treatment (Example 3)
Assay type: in vivo, Zea Mays

CN/C(=N\[N+](=O)[O-])NCc1cnc(Cl)s1 [clothianidin]
Plant Emergence, Emerged (Jul. 1, 2011, CTD 0.125 mg ai/seed): 43% | Plant Emergence, Emerged (Jul. 1, 2011, CTD 0.25 mg ai/seed): 43% | Plant Emergence, Emerged (Jul. 1, 2011, CTD 0.5 mg ai/seed): 33% | Plant Emergence, Emerged (Jul. 7, 2011, CTD 0.125 mg ai/seed): 43% | Plant Emergence, Emerged (Jul. 7, 2011, CTD 0.25 mg ai/seed): 43% | Plant Emergence, Emerged (Jul. 7, 2011, CTD 0.5 mg ai/seed): 33% | Plant Emergence, Emerged (Jun. 28, 2011, CTD 0.125 mg ai/seed): 43% | Plant Emergence, Emerged (Jun. 28, 2011, CTD 0.25 mg ai/seed): 40% | Plant Emergence, Emerged (Jun. 28, 2011, CTD 0.5 mg ai/seed): 33%
